Laboratory results as given in patent US9000189B2, “Biphenyl-substituted spirocyclic ketoenols” (Bayer CropScience AG, priority 2006, dated 2015).
Some entries share one result that the patent states for a list of compounds.

Key:
Setaria viridis [1] = experiment: Example 15: herbicidal action, pre-emergence method; format: in vivo; conditions: 320 g of a.i./ha, 3 weeks
[2] = tested on: caterpillars of the army worm (Spodoptera frugiperda); experiment: Example 2: Spodoptera frugiperda test (SPODFR spray treatment); format: in vivo; conditions: application rate 500 g/ha, after 7 d
Echinocloa crus-galli [3] = experiment: Example 15: herbicidal post-emergence action; format: in vivo; conditions: post-emergence method, 80 g/ha, about 3 weeks
[4] = tested on: green peach aphid (Myzus persicae); experiment: Example 3: Myzus test (MYZUPE spray treatment); format: in vivo; conditions: application rate 500 g/ha, after 6 d
[5] = tested on: greenhouse red spider mite (Tetranychus urticae); experiment: Example 4: Tetranychus test, OP-resistent (TETRUR spray treatment); format: in vivo; conditions: after 6 d
Setaria viridis [6] = experiment: Example 15: herbicidal post-emergence action; format: in vivo; conditions: post-emergence method, 80 g/ha, about 3 weeks
Echinocloa crus-galli [7] = experiment: Example 15: herbicidal action, pre-emergence method; format: in vivo; conditions: 320 g of a.i./ha, 3 weeks
Meloidogyne incognita = experiment: Example 5: Meloidogyne test (MELON spray treatment); format: in vivo; conditions: application rate 20 ppm, after 14 d
[8] = tested on: larvae of the mustard beetle (Phaedon cochleariae); experiment: Example 1: Phaedon test (PHAECO spray treatment); conditions: after 7 d
Boophilus microplus = experiment: Example 10: Boophilus microplus test (BOOPMI injection); format: in vivo; conditions: 20 μg/animal
Lucilia cuprina larvae = experiment: Example 9: Lucilia cuprina test (LUCICU); format: in vivo; conditions: application rate 100 ppm

CCOC1CCCC2(C1)NC(=O)C(c1c(C)ccc(-c3ccc(F)cc3)c1C)=C2O (mixture of isomers) [Example I-1-a-51]
≥ 80%: efficacy (herbicidal effect in percent) (Setaria viridis [1]) | efficacy (effect in %, caterpillars killed) [2] | efficacy (herbicidal effect in percent) (Echinocloa crus-galli [3]) | efficacy (effect in %, aphids killed) [4] | efficacy (effect in %, spider mites killed) ([5]; application rate 100 g/ha) | efficacy (herbicidal effect in percent) (Setaria viridis [6]) | efficacy (herbicidal effect in percent) (Echinocloa crus-galli [7])

COC1CCC2(C1)NC(=O)C(c1c(C)ccc(-c3ccc(F)cc3)c1C)=C2O (mixture of isomers) [Example I-1-a-55]
≥ 80%: efficacy (herbicidal effect in percent) (Setaria viridis [1]) | efficacy (effect in %, caterpillars killed) [2] | efficacy (effect in %, aphids killed) [4] | efficacy (nematicidal activity in % by the formation of galls) (Meloidogyne incognita) | efficacy (herbicidal effect in percent) (Echinocloa crus-galli [7])

Cc1ccc(-c2ccc(F)cc2)cc1C1=C(O)C2(CCCOC2)NC1=O (racemic) [Example I-1-a-46]
≥ 80%: efficacy (herbicidal effect in percent) (Setaria viridis [1]) | efficacy (effect in %, aphids killed) [4] | efficacy (effect in %, spider mites killed) ([5]; application rate 100 g/ha) | efficacy (herbicidal effect in percent) (Echinocloa crus-galli [7])

O=C1NC2(CCCOC2)C(O)=C1c1cc(-c2ccc(F)cc2)ccc1Cl (racemic) [Example I-1-a-47]
≥ 80%: efficacy (herbicidal effect in percent) (Setaria viridis [1]) | efficacy (effect in %, caterpillars killed) [2] | efficacy (effect in %, aphids killed) [4] | efficacy (effect in %, spider mites killed) ([5]; application rate 100 g/ha) | efficacy (herbicidal effect in percent) (Echinocloa crus-galli [7])

CCOC1CCCC2(C1)NC(=O)C(c1cc(-c3ccc(F)cc3)ccc1C)=C2O (single isomer, unassigned) [Example I-1-a-7]
≥ 80%: efficacy (herbicidal effect in percent) (Setaria viridis [1]) | efficacy (effect in %, beetle larvae killed) ([8]; application rate 100 g/ha) | efficacy (herbicidal effect in percent) (Echinocloa crus-galli [3]) | efficacy (effect in %, aphids killed) [4] | efficacy (effect in %, spider mites killed) ([5]; application rate 100 g/ha) | efficacy (herbicidal effect in percent) (Setaria viridis [6]) | efficacy (herbicidal effect in percent) (Echinocloa crus-galli [7])

Cc1ccc(-c2ccc(F)cc2)cc1C1=C(O)C2(CCOC(C)C2)NC1=O (single isomer, unassigned) [Example I-1-a-11]
≥ 80%: efficacy (effect in %, beetle larvae killed) ([8]; application rate 500 g/ha) | efficacy (effect in %, caterpillars killed) [2] | efficacy (herbicidal effect in percent) (Echinocloa crus-galli [3]) | efficacy (effect in %, aphids killed) [4] | efficacy (herbicidal effect in percent) (Setaria viridis [6])

Cc1ccc(-c2ccc(F)cc2)c(C)c1C1=C(O)C2(CCOC(C)C2)NC1=O (single isomer, unassigned) [Example I-1-a-12]
≥ 80%: efficacy (effect in %; 100% = none of the ticks has laid fertile eggs) (Boophilus microplus) | efficacy (kill in %) (Lucilia cuprina larvae) | efficacy (effect in %, caterpillars killed) [2] | efficacy (effect in %, aphids killed) [4] | efficacy (effect in %, spider mites killed) ([5]; application rate 100 g/ha)

Cc1ccc(-c2ccc(F)c(F)c2)cc1C1=C(O)C2(CCOCC2)NC1=O [Example I-1-a-3]
≥ 80%: efficacy (effect in %; 100% = none of the ticks has laid fertile eggs) (Boophilus microplus) | efficacy (kill in %) (Lucilia cuprina larvae) | efficacy (herbicidal effect in percent) (Setaria viridis [1]) | efficacy (effect in %, beetle larvae killed) ([8]; application rate 500 g/ha) | efficacy (effect in %, caterpillars killed) [2] | efficacy (effect in %, aphids killed) [4] | efficacy (effect in %, spider mites killed) ([5]; application rate 100 g/ha) | efficacy (herbicidal effect in percent) (Echinocloa crus-galli [7])

Cc1ccc(-c2ccc(F)cc2)c(C)c1C1=C(O)C2(CCOCC2)NC1=O [Example I-1-a-4]
≥ 80%: efficacy (kill in %) (Lucilia cuprina larvae) | efficacy (effect in %, beetle larvae killed) ([8]; application rate 500 g/ha) | efficacy (effect in %, caterpillars killed) [2] | efficacy (effect in %, aphids killed) [4] | efficacy (effect in %, spider mites killed) ([5]; application rate 20 g/ha)

Cc1ccc(-c2ccc(Cl)c(F)c2)cc1C1=C(O)C2(CCOCC2)NC1=O [Example I-1-a-6]
≥ 80%: efficacy (effect in %; 100% = none of the ticks has laid fertile eggs) (Boophilus microplus) | efficacy (kill in %) (Lucilia cuprina larvae) | efficacy (effect in %, beetle larvae killed) ([8]; application rate 500 g/ha) | efficacy (effect in %, caterpillars killed) [2] | efficacy (effect in %, aphids killed) [4] | efficacy (effect in %, spider mites killed) ([5]; application rate 20 g/ha)

Cc1ccc(-c2ccc(F)c(Cl)c2)cc1C1=C(O)C2(CCOCC2)NC1=O [Example I-1-a-16]
≥ 80%: efficacy (effect in %, caterpillars killed) [2] | efficacy (herbicidal effect in percent) (Echinocloa crus-galli [3]) | efficacy (effect in %, aphids killed) [4] | efficacy (effect in %, spider mites killed) ([5]; application rate 100 g/ha) | efficacy (herbicidal effect in percent) (Setaria viridis [6])

O=C1NC2(CCOCC2)C(O)=C1c1cc(-c2ccc(F)c(Cl)c2)ccc1Cl [Example I-1-a-17]
≥ 80%: efficacy (effect in %, caterpillars killed) [2] | efficacy (herbicidal effect in percent) (Echinocloa crus-galli [3]) | efficacy (effect in %, aphids killed) [4] | efficacy (effect in %, spider mites killed) ([5]; application rate 100 g/ha) | efficacy (herbicidal effect in percent) (Setaria viridis [6])

COc1cc(-c2ccc(C)c(C3=C(O)C4(CCOCC4)NC3=O)c2)ccc1F [Example I-1-a-18]
≥ 80%: efficacy (herbicidal effect in percent) (Echinocloa crus-galli [3]) | efficacy (effect in %, aphids killed) [4] | efficacy (herbicidal effect in percent) (Setaria viridis [6])

Cc1ccc(-c2ccc(F)c(C(F)(F)F)c2)cc1C1=C(O)C2(CCOCC2)NC1=O [Example I-1-a-22]
≥ 80%: efficacy (effect in %, beetle larvae killed) ([8]; application rate 500 g/ha) | efficacy (effect in %, aphids killed) [4] | efficacy (effect in %, spider mites killed) ([5]; application rate 100 g/ha) | efficacy (nematicidal activity in % by the formation of galls) (Meloidogyne incognita)

Cc1ccc(-c2ccc(F)c(C(F)(F)F)c2)c(C)c1C1=C(O)C2(CCOCC2)NC1=O [Example I-1-a-23]
≥ 80%: efficacy (effect in %, beetle larvae killed) ([8]; application rate 500 g/ha) | efficacy (effect in %, aphids killed) [4] | efficacy (nematicidal activity in % by the formation of galls) (Meloidogyne incognita)

Cc1ccc(-c2cc(F)c(F)c(F)c2)c(C)c1C1=C(O)C2(CCOCC2)NC1=O [Example I-1-a-25]
≥ 80%: efficacy (effect in %, beetle larvae killed) ([8]; application rate 500 g/ha) | efficacy (effect in %, caterpillars killed) [2] | efficacy (effect in %, aphids killed) [4] | efficacy (effect in %, spider mites killed) ([5]; application rate 100 g/ha) | efficacy (nematicidal activity in % by the formation of galls) (Meloidogyne incognita)

Cc1ccc(-c2cc(F)c(F)c(F)c2)cc1C1=C(O)C2(CCOCC2)NC1=O [Example I-1-a-28]
≥ 80%: efficacy (effect in %, beetle larvae killed) ([8]; application rate 500 g/ha) | efficacy (effect in %, caterpillars killed) [2] | efficacy (effect in %, aphids killed) [4] | efficacy (effect in %, spider mites killed) ([5]; application rate 100 g/ha) | efficacy (nematicidal activity in % by the formation of galls) (Meloidogyne incognita)

COC1CCCC2(C1)NC(=O)C(c1cc(-c3ccc(F)cc3)ccc1C)=C2O (centres unmarked) [Example I-1-a-50]
≥ 80%: efficacy (herbicidal effect in percent) (Setaria viridis [1]) | efficacy (effect in %, caterpillars killed) [2] | efficacy (herbicidal effect in percent) (Echinocloa crus-galli [3]) | efficacy (herbicidal effect in percent) (Setaria viridis [6]) | efficacy (herbicidal effect in percent) (Echinocloa crus-galli [7])

Cc1ccc(-c2ccc(F)cc2)c(C)c1C1=C(O)C2(CCCCC2)NC1=O [Example I-1-a-53]
≥ 80%: efficacy (herbicidal effect in percent) (Setaria viridis [1]) | efficacy (effect in %, caterpillars killed) [2] | efficacy (effect in %, aphids killed) [4] | efficacy (nematicidal activity in % by the formation of galls) (Meloidogyne incognita) | efficacy (herbicidal effect in percent) (Echinocloa crus-galli [7])

COC1CCCC2(C1)NC(=O)C(c1c(C)ccc(-c3ccc(F)cc3)c1C)=C2O (centres unmarked) [Example I-1-a-54]
≥ 80%: efficacy (effect in %, caterpillars killed) [2] | efficacy (herbicidal effect in percent) (Echinocloa crus-galli [3]) | efficacy (herbicidal effect in percent) (Setaria viridis [6])

CCOC(=O)OC1=C(c2cc(-c3ccc(F)cc3)ccc2Cl)C(=O)NC12CCOCC2 [Example I-1-c-4]
≥ 80%: efficacy (effect in %, beetle larvae killed) ([8]; application rate 500 g/ha) | efficacy (effect in %, caterpillars killed) [2] | efficacy (effect in %, aphids killed) [4] | efficacy (effect in %, spider mites killed) ([5]; application rate 100 g/ha)

CCOC(=O)OC1=C(c2cc(-c3ccc(F)cc3)ccc2C)C(=O)NC12CCOCC2 [Example I-1-c-5]
≥ 80%: efficacy (effect in %, beetle larvae killed) ([8]; application rate 500 g/ha) | efficacy (effect in %, caterpillars killed) [2] | efficacy (effect in %, aphids killed) [4] | efficacy (effect in %, spider mites killed) ([5]; application rate 100 g/ha)

Cc1ccc(-c2ccc(F)c(F)c2)cc1C1=C(O)C2(CCCC2)OC1=O [Example I-2-a-3]
≥ 80%: efficacy (effect in %; 100% = none of the ticks has laid fertile eggs) (Boophilus microplus) | efficacy (kill in %) (Lucilia cuprina larvae) | efficacy (effect in %, beetle larvae killed) ([8]; application rate 500 g/ha) | efficacy (effect in %, caterpillars killed) [2] | efficacy (effect in %, aphids killed) [4] | efficacy (nematicidal activity in % by the formation of galls) (Meloidogyne incognita)

Cc1ccc(-c2ccc(F)c(Cl)c2)cc1C1=C(O)C2(CCCC2)OC1=O [Example I-2-a-4]
≥ 80%: efficacy (effect in %, beetle larvae killed) ([8]; application rate 500 g/ha) | efficacy (effect in %, caterpillars killed) [2] | efficacy (effect in %, aphids killed) [4] | efficacy (nematicidal activity in % by the formation of galls) (Meloidogyne incognita)

O=C1OC2(CCCCC2)C(O)=C1c1cc(-c2cc(F)c(F)c(F)c2)ccc1Cl [Example I-2-a-9]
≥ 80%: efficacy (effect in %, beetle larvae killed) ([8]; application rate 500 g/ha) | efficacy (effect in %, caterpillars killed) [2] | efficacy (effect in %, aphids killed) [4] | efficacy (effect in %, spider mites killed) ([5]; application rate 100 g/ha) | efficacy (nematicidal activity in % by the formation of galls) (Meloidogyne incognita)

O=C1OC2(CCCCC2)C(O)=C1c1cc(-c2ccc(F)cc2)ccc1Cl [Example I-2-a-10]
≥ 80%: efficacy (effect in %; 100% = none of the ticks has laid fertile eggs) (Boophilus microplus) | efficacy (kill in %) (Lucilia cuprina larvae) | efficacy (effect in %, beetle larvae killed) ([8]; application rate 500 g/ha) | efficacy (effect in %, caterpillars killed) [2] | efficacy (effect in %, aphids killed) [4] | efficacy (nematicidal activity in % by the formation of galls) (Meloidogyne incognita)

Cc1ccc(-c2ccc(F)cc2)c(C)c1C1=C(O)C2(CCOCC2)OC1=O [Example I-2-a-11]
≥ 80%: efficacy (effect in %, beetle larvae killed) ([8]; application rate 500 g/ha) | efficacy (effect in %, caterpillars killed) [2] | efficacy (effect in %, aphids killed) [4] | efficacy (nematicidal activity in % by the formation of galls) (Meloidogyne incognita)

CCOC(=O)OC1=C(c2cc(-c3ccc(F)cc3)ccc2C)C(=O)OC12CCCCC2 [Example I-2-c-1]
≥ 80%: efficacy (effect in %; 100% = none of the ticks has laid fertile eggs) (Boophilus microplus) | efficacy (effect in %, caterpillars killed) [2] | efficacy (effect in %, spider mites killed) ([5]; application rate 100 g/ha) | efficacy (nematicidal activity in % by the formation of galls) (Meloidogyne incognita)
